Reference: patent US20220041711A1
No constants are given. Whether binding was seen depends on the method and setting. Some binding calls cover weakened binding; strength is not graded here. Where a sequence is shown, tags or fusion partners need not be part of it. Blank lines part the entries; values can stand above or below the binder they belong to.

The chains behind the UniProt entries cited, without tags or fusion partners.
UniProt Q9UMD9: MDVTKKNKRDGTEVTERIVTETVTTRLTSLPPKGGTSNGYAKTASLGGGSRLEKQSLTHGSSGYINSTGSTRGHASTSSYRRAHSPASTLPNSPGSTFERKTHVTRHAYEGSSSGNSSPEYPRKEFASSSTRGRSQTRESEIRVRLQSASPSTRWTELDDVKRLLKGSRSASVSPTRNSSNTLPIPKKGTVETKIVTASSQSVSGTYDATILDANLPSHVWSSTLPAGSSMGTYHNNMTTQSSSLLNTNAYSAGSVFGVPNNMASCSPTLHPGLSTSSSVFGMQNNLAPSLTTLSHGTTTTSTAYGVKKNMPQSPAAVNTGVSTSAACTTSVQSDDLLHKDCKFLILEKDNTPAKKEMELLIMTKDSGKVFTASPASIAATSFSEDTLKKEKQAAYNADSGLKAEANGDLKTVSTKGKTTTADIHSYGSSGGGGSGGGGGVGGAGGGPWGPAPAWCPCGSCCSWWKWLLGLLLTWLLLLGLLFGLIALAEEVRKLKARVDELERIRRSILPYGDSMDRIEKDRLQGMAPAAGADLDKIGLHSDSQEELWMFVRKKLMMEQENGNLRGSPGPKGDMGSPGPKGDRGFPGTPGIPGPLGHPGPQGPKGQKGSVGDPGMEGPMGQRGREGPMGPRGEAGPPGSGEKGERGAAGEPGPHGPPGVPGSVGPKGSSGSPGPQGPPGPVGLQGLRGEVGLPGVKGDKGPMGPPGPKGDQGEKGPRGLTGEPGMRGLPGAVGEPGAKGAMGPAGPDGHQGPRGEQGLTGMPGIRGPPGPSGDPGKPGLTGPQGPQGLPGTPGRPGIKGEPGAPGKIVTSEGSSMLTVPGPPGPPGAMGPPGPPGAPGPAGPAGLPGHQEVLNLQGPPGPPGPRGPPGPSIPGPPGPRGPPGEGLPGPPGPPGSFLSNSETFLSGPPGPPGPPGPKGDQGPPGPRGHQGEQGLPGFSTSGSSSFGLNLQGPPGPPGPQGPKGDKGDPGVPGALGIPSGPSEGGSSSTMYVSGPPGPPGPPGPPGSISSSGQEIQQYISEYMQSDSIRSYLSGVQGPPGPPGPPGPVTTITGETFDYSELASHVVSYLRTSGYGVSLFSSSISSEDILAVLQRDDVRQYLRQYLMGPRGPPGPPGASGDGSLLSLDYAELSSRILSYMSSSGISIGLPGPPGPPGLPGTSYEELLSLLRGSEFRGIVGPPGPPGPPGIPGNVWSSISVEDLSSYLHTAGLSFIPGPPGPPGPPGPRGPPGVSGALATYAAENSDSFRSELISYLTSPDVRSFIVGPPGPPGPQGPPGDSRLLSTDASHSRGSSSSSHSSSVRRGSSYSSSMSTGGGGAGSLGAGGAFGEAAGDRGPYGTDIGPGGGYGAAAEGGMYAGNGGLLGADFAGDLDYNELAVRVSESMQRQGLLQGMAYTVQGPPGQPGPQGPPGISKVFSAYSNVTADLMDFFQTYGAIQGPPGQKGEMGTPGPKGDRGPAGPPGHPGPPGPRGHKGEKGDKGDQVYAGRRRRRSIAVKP

Tests used:
[1] = target: collagen 17A1 (COL17A1) expressed on 721.221 cells (UniProt Q9UMD9); assay: flow cytometry, Fc fusion at 10 µg/mL on transduced 721.221 cells
[2] = target: collagen 17A1 (COL17A1) expressed on 721.221 cells (UniProt Q9UMD9); assay: flow cytometry, Fc protein at 10 µg/mL on 721.221 cells expressing COL17A1, PE anti-Fc secondary

- binding [1]: binds
- binding [2]: binds
B1: LAIR-2-Fc (Fc fusion, not shown: a dimerising Fc or GST)
chain: QEGALPRPSISAEPGTVISPGSHVTFMCRGPVGVQTFRLEREDRAKYKDSYNVFRLGPSESEARFHIDSVSEGNAGLYRCLYYKPPGWSEHSDFLELLVKESSGGPDSPDTEPGSSAGTVPGTEASGFDAP

- binding [1]: binds
- binding [2]: binds
B2: human LAIR-1-Fc (Fc fusion, not shown: a dimerising Fc or GST)
chain: QEEDLPRPSISAEPGTVIPLGSHVTFVCRGPVGVQTFRLERESRSTYNDTEDVSQASPSESEARFRIDSVSEGNAGPYRCIYYKPPKWSEQSDYLELLVKETSGGPDSPDTEPGSSAGPTQRPSDNSHNEHAPASQGLKAEHLY
